Part of at least one peptide drawing is inferred or uncertain, most often the ends. Numbered stars: 1 amine (or outer) side, 2 acyl side, 3 side chain; on linkers, the order of the positions; unused ones are H or OH. Bridge positions count the residues as written; N and C are the ends. Square brackets hold non-standard residues; d marks the D form. Side chains are listed from the residue outwards. Peptide text beside a SMILES is read from it. * marks the point of attachment. C18 diacid = O=C(O)CCCCCCCCCCCCCCCCC(=O)*; γGlu = O=C(O)[C@H](CCC(=O)[*:2])N[*:1]; AEEA = NCCOCCOCC(=O)O; Aib = CC(C)(N)C(=O)O
How the values were obtained:
[1] = Thioflavin T (ThT) fibrillation screening assay; format: physicochemical; conditions: 37° C.
Protocol: Thioflavin T (T3516, Sigma). Assay stock ThT is prepared as a 10 mM solution in 5 mM sodium phosphate pH 7.2. Aliquots are stored, protected from light, at −20° C. Stock ThT is thawed and diluted just prior to use.
For the tested calcitonin mimetics (hereinafter referred to as “acylated KBPs” or simply “KBPs”), final buffer conditions are 10 mM Tris-HCl pH 7.5.
The final peptide concentration in the wells should be 100-200 μM, and the final ThT concentration should be 4 μM. ThT is added last (10 μL).
Thioflavin T assays were also conducted. Thioflavin T (ThT) is a dye widely used for the detection of amyloid fibrils. In the presence of fibrils, ThT has an excitation maximum at 450 nm and enhanced emission at 480 nm, whereas ThT is essentially non-fluorescent at these wavelengths when not bound to amyloid fibrils.
Thus, ThT in combination with a fluorescent plate reader is an ideal tool for screening large numbers of in vitro samples for the presence of amyloid fibrils. […]
The plate is loaded into a fluorescent plate reader, such as a SpectraMax with SoftMax Pro 7.0.2 software, and the template set to 37° C. with excitation wavelength at 450 nm and emission wavelength at 480 nm.
Plate reader should measure fluorescence every 10 minutes for 24 hours with a five-second plate shake before the first read and a three-second plate shake before all other reads. Alternatively, the plate is read after the following incubation times; 0, 1, 2, 4 and 24 hours.
Plot relative fluorescence units (RFU) as a function of time. Fibrillation is determined as an increase in RFU over baseline as described by Nielsen et. al.
In this filing four fibrillations tiers have been defined based on the 18 h fluorescence signal to get a single output that reflects the peptides fibrillation potential: None=<1000 RFU, Low=1000-3000 RFU, Medium=3000-10000, High=>10000

[2] = molecular target: T1, Calcitonin Receptor (CTR) (Homo sapiens, UniProt P30988); assay: PathHunter β-arrestin recruitment assay, U2OS-CALCR (CTR) cells; format: cell-based; conditions: linker comparison, KBP-066 backbone
T1 construct: host or cells: U2OS
T1 sequence (P30988 25-474): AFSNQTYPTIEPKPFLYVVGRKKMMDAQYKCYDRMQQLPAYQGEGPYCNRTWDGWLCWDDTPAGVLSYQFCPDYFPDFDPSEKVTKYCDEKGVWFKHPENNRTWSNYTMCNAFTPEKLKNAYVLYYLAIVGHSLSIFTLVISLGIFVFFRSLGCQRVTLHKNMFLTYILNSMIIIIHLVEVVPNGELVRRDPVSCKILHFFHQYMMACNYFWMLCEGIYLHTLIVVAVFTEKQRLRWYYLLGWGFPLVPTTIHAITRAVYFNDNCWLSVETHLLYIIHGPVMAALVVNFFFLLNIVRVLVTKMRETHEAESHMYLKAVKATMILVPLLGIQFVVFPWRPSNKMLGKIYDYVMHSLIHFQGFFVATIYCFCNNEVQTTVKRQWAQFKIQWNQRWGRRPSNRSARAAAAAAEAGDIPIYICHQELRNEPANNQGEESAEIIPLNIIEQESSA

CC(=O)N[C@H]1CSSC[C@@H](C(=O)NC(C)(C)C(=O)N[C@@H](CC(C)C)C(=O)NCC(=O)N[C@@H](CCCCNC(=O)COCCOCCNC(=O)COCCOCCNC(=O)CC[C@H](NC(=O)CCCCCCCCCCCCCCCCC(=O)O)C(=O)O)C(=O)N[C@@H](CC(C)C)C(=O)N[C@@H](CO)C(=O)N[C@@H](CCC(N)=O)C(=O)N[C@@H](CC(=O)O)C(=O)N[C@@H](CC(C)C)C(=O)N[C@@H](Cc2c[nH]cn2)C(=O)N[C@@H](CCCNC(=N)N)C(=O)N[C@@H](CC(C)C)C(=O)N[C@@H](CCC(N)=O)C(=O)N[C@H](C(=O)N[C@@H](Cc2ccc(O)cc2)C(=O)N2CCC[C@H]2C(=O)N[C@@H](CCCCN)C(=O)N[C@H](C(=O)N[C@@H](CC(=O)O)C(=O)N[C@H](C(=O)NCC(=O)N[C@@H](C)C(=O)N[C@@H](CC(N)=O)C(=O)N[C@@H](C)C(=O)N2CCC[C@H]2C(N)=O)C(C)C)[C@@H](C)O)[C@@H](C)O)NC(=O)[C@H]([C@@H](C)O)NC(=O)[C@H](CO)NC(=O)[C@H](CC(C)C)NC(=O)[C@H](CC(N)=O)NC(=O)[C@H](CO)NC1=O [KBP-356] (Ac-CSNLSTC[Aib]LGK([AEEA-AEEA-γGlu-C18 diacid])LSQDLHRLQTYPKTDVGANAP-NH2; disulfide 1-7 (inferred))
Peptide Fibrillation Thioflavin T ΔFluorescence 18 h Assay Score ([1]; 18 h fluorescence signal): None (None=<1000 RFU) | Peptide Fibrillation Thioflavin T ΔFluorescence 18 h Assay Score ([1]; Table 4.2: backbone KBP-066, tier from 18 h fluorescence signal): None (None=<1000 RFU) | Peptide Fibrillation Thioflavin T ΔFluorescence 18 h Assay Score ([1]; Table 4.4: acylation linkers, backbone KBP-066, tier from 18 h fluorescence signal): None (None=<1000 RFU) | fold better EC50 on the CTR compared to 385 and 384 [2]: ~10 fold
